Results are given in words; binding and its absence hold for the method and conditions named. Binding seen in cells or lysates may run through a third protein. Binding can be weak; no strength is given.
Target: C-terminal Flag-tagged LAPTM4B (lysosomal protein transmembrane 4 beta) (UniProt Q86VI4)
Test: co-IP

binding: binds
Substance: HA-tagged TGFBR2 (from UniProt P37173 23-567) (receptor)

From paper doi:10.1101/2024.08.30.610429
